Reference: PubChem BioAssay AID1259424 (University of Nebraska Medical Center, 2018)

Screen: 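Rank knockdowns across the genome by resemblance to the KSR1 depletion profile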 (primary screen)
System: human HCT116 colon cancer cells
Reagents: siRNA pool against human genes, 50 nM
Detection: 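Log2 levels of six mRNAs (branched-DNA multiplex), adjusted by two reference genes and the non-targeting median, then scored against the average KSR1 knockdown pattern as Pearson r and euclidean distance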
Reading the numbers: mean correlation with KSR1 profile and KSR1 correlation: higher = expression change more like KSR1 knockdown; mean distance from KSR1 profile: higher = expression change less like KSR1 knockdown
The whole screen tested about 14,000 reagents; this is an unselected part. 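Higher correlation or smaller distance means closer resemblance to KSR1 loss; control wells, including KSR1 knockdowns, recur on many plates.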 The record does not give: the time to read-out.

Gene	mean correlation with KSR1 profile	mean distance from KSR1 profile	KSR1 correlation, replicate 1	KSR1 correlation, replicate 2	KSR1 correlation, replicate 3
NKRF	0.139	2.33	0.157	0.153	0.073
MAP6D1	0.378	2.3	0.404	0.475	0.336
SUDS3	-0.0786	2.45	0.107	-0.247	-0.00222
FOXN2	0.0584	2.63	-0.216	0.0683	0.0372
TIGAR	-0.228	1.99	-0.295	-0.302	-0.244
CTH	-0.907	3.95	-0.888	-0.919	-0.537
DCHS2	-0.143	2.74	-0.106	-0.322	-0.0619
UGT2A1	-0.0107	2.62	0.0305	-0.071	-0.000979
TTC39A	-0.298	2.19	-0.127	-0.485	-0.0453
TPRXL	0.267	1.49	0.454	-0.292	-0.0949
CSNK1A1	0.258	2.67	0.141	0.16	0.33
PROKR2	0.68	3.17	0.724	0.666	0.302
PDP1	-0.0757	2.94	-0.105	-0.422	0.122
AMY1A	-0.0374	1.47	0.107	-0.0795	-0.0933
ARL6	0.636	2.05	0.549	0.652	0.671
MFSD2A	0.187	3.03	0.00925	0.00217	0.213
COLQ	0.0316	1.09	-0.00212	-0.315	0.17
ITPR3	0.566	1.68	0.574	0.782	0.347
UGT1A6	-0.388	1.87	-0.393	-0.492	-0.354
DDX49	-0.249	2.15	-0.0478	-0.242	-0.302
